Measurements published in patent publication US20170029388A1, “Treatment of Neurodegenerative Diseases with Asparagine Endopeptidase (AEP) Inhibitors and Compositions Related Thereto” (INTERCONTINENTAL GREAT BRANDS LLC, priority 2014, published 2017).
Some results were stated once for a whole list of compounds, not compound by compound. At least one compound was matched to its structure with a doubt left.

Protein sequences, listed by entry. Tags and fused reporters are not part of them. Residues count along the entry.
UniProt Q14790, 385-479 limits assumed, species assumed: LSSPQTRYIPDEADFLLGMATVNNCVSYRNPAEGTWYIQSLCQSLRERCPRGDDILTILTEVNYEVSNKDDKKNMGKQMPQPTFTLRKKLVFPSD
UniProt Q14790, 217-374 limits assumed, species assumed: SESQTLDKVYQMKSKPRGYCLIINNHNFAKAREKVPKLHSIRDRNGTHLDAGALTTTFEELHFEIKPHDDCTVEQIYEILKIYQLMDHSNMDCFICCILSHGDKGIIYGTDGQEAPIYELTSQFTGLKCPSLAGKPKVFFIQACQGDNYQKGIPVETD

Molecular target: T1, Caspase-8 (Homo sapiens, UniProt Q14790)
T1 construct: purchased Millipore
Experiment: Caspase-8 enzymatic assay (specificity)
Assay type: biochemical
Experimental: Purified recombinant enzyme was incubated with various concentrations of inhibitor in appropriate assay buffers in the presence of increasing concentrations of inhibitor. The formation of fluorescent product was monitored in duplicate reactions and the data was fit to appropriate equations to calculate the IC50 values.
To identify small-molecule inhibitors of AEP, a high-throughput screen was designed in conjunction with the Emory Chemical Biology Discovery Center. The screen incorporated mouse kidney lysates to assay a 54,384 compound library. […] Additional structural analysis and grouping allowed the compounds to be sorted into 8 distinct backbone families. […] The specificity of the compounds was also determined using four major cysteine proteases (FIG. 2).
Caspase-3 and 8 —The enzyme was pre-incubated with inhibitor in assay buffer (100 mM HEPES pH 7.4, 0.1% CHAPS, 10% Sucrose) for 10 min at 37° C. The reaction was initiated upon addition of 25 μM substrate (Ac-Asp-Glu-Val-Asp-AMC (Bachem)).

Cn1c(=O)[nH]c(=O)c2c1nc(S)n2CC(O)COc1ccc(Cl)cc1 (stereo not shown) [Compound 38]
selectivity for AEP over Caspase-8: at least 80 fold
